Data set [1] concerns F98 rat glioma cells. In words: Immunostaining of F98 cells (micro-distribution of boron compounds). Type of data set: cell-based. The conditions noted are these: 2.0 mM, 24 h, anti-BSH A9H3 or anti-BPA 2B10 antibody.
In data set [2] the test system is F98 glioma bearing rats. In words: In vivo BNCT therapeutic experiment, neutron irradiation at KURRI. Further details: species or system rat. The conditions noted are these: iv, 1 h. From the text: All animal experimental procedures were approved by the Animal Use Review Board and Ethical Committee of Osaka Medical College (No. 25092, 28 October 2015) and Kyoto University Research Reactor Institute (KURRI, No. 25030-13, 1 April 2015), and performed following the Guide for the Care and Use of Laboratory Animals. Eight-week-old, male Fischer 344 rats weighing between 200 and 250 g were used (Japan SLC, Inc. Shizuoka, Japan). Rats were anesthetized with an intraperitoneal (ip) injection of a mixture of medetomidine 0.15 mg, midazolam 2 mg, and butorphanol 2.5 mg/kg body weight (bw). The head of each rat was fixed with a stereotactic frame (Model 900; David Kopf Instruments, Tujunga, CA, USA). The scalp was incised at the midline and a small burr hole was drilled into the skull (1 mm posterior and 4 mm right-lateral to the bregma), using an electric drill. And then, F98 glioma cells were injected into the brain using a 25 µL Hamilton microsyringe with a 26-gauge needle (model 1700 RN, Hamilton Bonaduz AG, Bonaduz, Switzerland). The needle was inserted at a 5 mm depth from the skull and F98 cells were diluted in 10 µL of DMEM containing low-gelling temperature agarose at a concentration of either 10^3 for therapeutic experiments or 10^5 cells for biodistribution experiments. They were injected over 30 s using an automatic infuser pump. The needle entry hole was immediately sealed with bone wax and the incised scalp was closed with 3-0 silk sutures (Ethicon, North Ryde, NSW). After surgery, all animals were given atipamezole hydrochloride (0.15 mg/kg bw, ip).
Therapeutic experiments for BNCT were performed 14 days after stereotactic implantation of 10^3 F98 glioma cells. Rats were transported to the Nuclear Reactor Laboratory at KURRI. The rats were then randomized based on weight into experimental groups of 4–6 animals as follows: Group 1, KA-BSH administered iv and via neutron irradiation; Group 2, neutron irradiation only; Group 3, untreated control. All irradiated rats were anesthetized with a mixture of medetomidine (0.15 mg/kg bw), midazolam (2 mg/kg bw) and butorphanol (2.5 mg/kg bw). BNCT was initiated 1 h after termination of iv administration of KA-BSH (10 mg ^10B/kg bw). The rats were irradiated at a reactor power of 1 MW using the Heavy Water Neutron Irradiation Facility for 1 h. The therapeutic effect of BNCT was evaluated by the survival time of the animals. Radiation dose of BNCT experiments have been estimated using the same method as we have reported. The equivalent dose for KA-BSH cannot be estimated because the CBEB for KA-BSH is unknown.2.10. Statistical analysis
The means and standard deviations (SD) were computed for ^10B concentrations of F98 glioma cells and tissues of Fischer rats bearing intracerebral implants of the F98 glioma. Logistic regression was used to determine the significance of differences in cell viability. Statistical differences between means were calculated using the Student’s unpaired t-test. In therapeutic experiments, the median survival time (MST) was calculated for each group using the Kaplan–Meier estimate. Kaplan–Meier curves were also plotted for all groups. An overall log-rank test was performed to test for equality of survival curves between groups. Statistical analyses were performed using the software JMP 12 (SAS Institute Inc., Cary, NC, USA).

The mark [3] stands for this setting: DB × CBEB + DN × RBEN + DH × RBEH + Dγ.
Where [4] appears, read: estimated from 10B concentrations.

As for `N[C@@H](Cc1ccc(B(O)O)cc1)C(=O)O` [BPA, boronophenylalanine, reference compound], in data set [1], the “micro-distribution in F98 cells” value was “widely distributed in the cytoplasm and cell nuclei”. Besides, in data set [2] (setting [3]), the “Equivalent Dose, Brain” value stood at 2.2 Gy-eq and the “Equivalent Dose, Tumor” value came to 9.4 Gy-eq. The “Physical Radiation Dose, Brain” value in data set [2] (setting [4]) was 1.3 Gy.
Take “S-(2-(5-hydroxy-4-oxo-4H-pyran-2-yl) methyl) Thioundecahydro-Closo- Dodecaborate (2-) Disodium Salt [KA-BSH]”: the “micro-distribution in F98 cells” value in data set [1] is “incorporated into the cell membrane of the F98 cells and aggregated on the fringe of the cell nuclei”. In data set [2] (setting [4]), the “Physical Radiation Dose, Brain” value is 1.0 Gy and the “Physical Radiation Dose, Tumor” value is recorded as 1.1 Gy.
For “dodecaboranethiol [BSH, reference compound]”, in data set [1], the “micro-distribution in F98 cells” value is reported as “did not pass through the cell membrane”.
